Results on 1 compound are retold here after patent US20220273637A1, “NOVEL PFAR-INHIBITING COMPOUNDS” (UNIVERSITE DE BRETAGNE OCCIDENTALE (UBO), priority 2019, published 2022).

In assay [1] the test system is PABPN1 aggregates. The class given is cell-based, murine.
The test system of assay [2] is PFAR (protein folding activity of ribosome). The assay can be described thus: Inhibition of PFAR in yeast cells (LuxAB luciferase refolding after heat shock). It is filed as cell-based. To be noted: luciferase activity at 0, 90 and 150 minutes after heat shock, FIG. 2.

For `CC(C)(C)c1ccc(C(=O)CCCN2CCC(OC(c3ccccc3)c3ccccc3)CC2)cc1` [ebastine], the “activity compared with guanabenz (positive control)” value in assay [1] is given as “more active than guanabenz”. For the same compound, in assay [2], the “concentration from which PFAR is inhibited” value was no less than 25 µM.
